Experimental data taken from publication PMC8671138.
No constants are given. Whether binding was seen depends on the method and setting. Sequences can lack the tags named with a protein.

Target: CD47 on WT Jurkat cells (human (endogenous in Jurkat)), Q08722
Test: flow cytometry on cells; WT Jurkat cells stained with SIRPα-Fc or SIRPγ-Fc, FACS; conditions not told (mentioned in the discussion only); only the binder purified
Settings: remark: other sources report otherwise

B1: SIRPγ-Fc, Q9P1W8 29-360 (Fc fusion)
chain: EEELQMIQPEKLLLVTVGKTATLHCTVTSLLPVGPVLWFRGVGPGRELIYNQKEGHFPRVTTVSDLTKRNNMDFSIRISSITPADVGTYYCVKFRKGSPENVEFKSGPGTEMALGAKPSAPVVLGPAARTTPEHTVSFTCESHGFSPRDITLKWFKNGNELSDFQTNVDPTGQSVAYSIRSTARVVLDPWDVRSQVICEVAHVTLQGDPLRGTANLSEAIRVPPTLEVTQQPMRVGNQVNVTCQVRKFYPQSLQLTWSENGNVCQRETASTLTENKDGTYNWTSWFLVNISDQRDDVVLTCQVKHDGQLAVSKRLALEVTVHQKDQSSDATP
binding: no binding
